The values below come from article PMC11905138.

Protein sequences, listed by entry. Tags and fused reporters are not part of them. Lines headed by an entry give the natural chain unless they say otherwise; changes in a name come on top.
UniProt P14618: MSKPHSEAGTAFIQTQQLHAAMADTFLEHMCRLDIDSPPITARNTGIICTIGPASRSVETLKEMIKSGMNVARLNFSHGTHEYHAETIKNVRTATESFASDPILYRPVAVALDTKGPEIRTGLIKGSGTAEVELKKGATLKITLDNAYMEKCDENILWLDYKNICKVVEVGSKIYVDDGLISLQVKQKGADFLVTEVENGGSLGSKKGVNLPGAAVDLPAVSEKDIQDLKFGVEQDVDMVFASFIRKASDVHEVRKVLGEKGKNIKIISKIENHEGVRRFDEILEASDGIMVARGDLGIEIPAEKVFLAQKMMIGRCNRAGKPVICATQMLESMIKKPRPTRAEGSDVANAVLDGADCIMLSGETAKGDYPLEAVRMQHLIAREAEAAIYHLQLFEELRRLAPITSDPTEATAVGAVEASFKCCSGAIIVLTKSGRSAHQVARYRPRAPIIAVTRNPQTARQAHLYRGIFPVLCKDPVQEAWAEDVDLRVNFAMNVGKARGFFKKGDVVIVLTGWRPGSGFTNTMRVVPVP
UniProt P46940: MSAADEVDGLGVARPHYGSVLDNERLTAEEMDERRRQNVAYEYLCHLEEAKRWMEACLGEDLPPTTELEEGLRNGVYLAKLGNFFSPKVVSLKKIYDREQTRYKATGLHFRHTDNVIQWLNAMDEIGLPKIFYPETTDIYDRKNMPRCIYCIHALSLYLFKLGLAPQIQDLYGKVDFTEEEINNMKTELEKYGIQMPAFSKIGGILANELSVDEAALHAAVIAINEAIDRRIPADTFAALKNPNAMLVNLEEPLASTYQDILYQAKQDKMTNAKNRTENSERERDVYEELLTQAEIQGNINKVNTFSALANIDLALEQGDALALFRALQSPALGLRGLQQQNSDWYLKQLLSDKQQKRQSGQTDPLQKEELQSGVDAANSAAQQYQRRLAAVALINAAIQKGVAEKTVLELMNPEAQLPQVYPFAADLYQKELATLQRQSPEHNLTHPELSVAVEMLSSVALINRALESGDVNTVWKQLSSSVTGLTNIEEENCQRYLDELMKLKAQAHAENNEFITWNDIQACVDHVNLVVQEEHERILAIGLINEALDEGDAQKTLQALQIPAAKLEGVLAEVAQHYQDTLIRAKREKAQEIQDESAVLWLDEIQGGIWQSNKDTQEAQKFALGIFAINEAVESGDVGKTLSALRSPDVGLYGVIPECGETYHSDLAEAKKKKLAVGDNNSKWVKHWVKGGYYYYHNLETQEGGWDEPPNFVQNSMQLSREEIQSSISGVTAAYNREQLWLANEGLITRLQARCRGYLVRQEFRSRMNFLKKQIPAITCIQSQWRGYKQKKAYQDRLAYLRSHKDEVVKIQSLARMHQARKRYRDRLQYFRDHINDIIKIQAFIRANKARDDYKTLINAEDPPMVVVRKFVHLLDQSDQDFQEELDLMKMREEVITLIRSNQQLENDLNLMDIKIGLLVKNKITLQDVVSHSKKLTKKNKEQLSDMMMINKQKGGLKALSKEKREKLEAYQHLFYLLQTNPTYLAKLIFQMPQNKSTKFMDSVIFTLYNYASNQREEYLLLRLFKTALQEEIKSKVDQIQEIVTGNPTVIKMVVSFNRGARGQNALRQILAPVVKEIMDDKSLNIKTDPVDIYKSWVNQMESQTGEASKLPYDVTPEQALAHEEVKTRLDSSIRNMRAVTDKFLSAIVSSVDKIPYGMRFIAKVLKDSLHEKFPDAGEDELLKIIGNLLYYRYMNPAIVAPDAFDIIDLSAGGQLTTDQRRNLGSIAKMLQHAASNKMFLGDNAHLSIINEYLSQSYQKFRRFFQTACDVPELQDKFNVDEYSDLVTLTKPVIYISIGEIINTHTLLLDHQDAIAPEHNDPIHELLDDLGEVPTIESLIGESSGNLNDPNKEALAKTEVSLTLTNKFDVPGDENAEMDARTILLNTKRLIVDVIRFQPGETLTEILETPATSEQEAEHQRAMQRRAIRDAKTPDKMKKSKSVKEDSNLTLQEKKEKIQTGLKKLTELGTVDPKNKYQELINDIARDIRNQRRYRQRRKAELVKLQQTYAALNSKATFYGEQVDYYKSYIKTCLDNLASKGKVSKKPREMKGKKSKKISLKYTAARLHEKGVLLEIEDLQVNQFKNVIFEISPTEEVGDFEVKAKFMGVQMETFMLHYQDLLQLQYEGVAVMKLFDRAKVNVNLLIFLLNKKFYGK

No constants are given. Whether binding was seen depends on the method and setting. In cells and extracts the contact can be indirect. Here binding means that the protein was enriched with, or labelled near, the bait; the list need not be complete. For some assays here: No binding means not detected with the bait.

Assay [1] addresses Flag-PKM2^Y105F (non-phosphorylatable mutant of pyruvate kinase M2) (UniProt P14618). As to the kind of experiment: affinity purification with mass spectrometry; anti-Flag magnetic beads on RIPA lysates of A549-PKM2^WT and A549-PKM2^Y105F cells; LC-MS/MS of the precipitated complexes.
The target of assay [2] is Flag-PKM2^WT (wild-type pyruvate kinase M2, phosphorylated at Y105 in the cells) (UniProt P14618). Described as above.

Take IQGAP1 (from UniProt P46940 1-1657): the binding result was “no binding” in assay [1] and “binds” in assay [2].
